Measured values taken from US20190111107A1, “METHODS FOR MODULATING INTESTINAL MICROBIOTA” (DEFENSIN THERAPEUTICS APS, priority 2016, published 2019).
Entries after “also recorded” stand apart in the source; their conditions may differ. At least one structure is not confirmed: it was looked up by name or label, or the drawing left a doubt.

Tests used:
[1] = test system: Dextran Sodium Sulphate (DSS) induced colitis; format: in vivo, mice; conditions: DEX 1 mg/kg subcutaneously OD
[2] = test system: gut microbiota; experiment: 16S RNA microbiome analysis after interventional treatment with a GLP-1 analog; format: in vivo, C57BI/6J DIO male mice
[3] = test system: cytokines IFNγ, TNF-α, IL-1β, IL12p70, IL-2, IL-4, IL-5, IL-6, IL-8 and IL-10; experiment: Concentration of cytokines in ilium after treatment with a GLP-1 analog; format: in vivo, C57BI/6J DIO male mice; conditions: day 28; between the three study groups

Row | SMILES | histological damage of the colonic tissue [1] | bacterial genera driving the changes of gut microbiota ([2]; 4 weeks treatment) | microbiota (unweighted unifrac analysis) compared with vehicle treated group / LFD ([2]; 4 weeks, 0.2 mg/kg BID subcutaneously, HFD, 0.2 mg/kg) | concentration of cytokines in ilium (anti-inflammatory effect) [3]
1 | C[C@@H]1C[C@H]2[C@@H]3CCC4=CC(=O)C=C[C@]4(C)[C@@]3(F)[C@@H](O)C[C@]2(C)[C@@]1(O)C(=O)CO [DEX, Dexamethasone] | failed to significantly reduce histological injury | – | – | –
2 | CCCCCCCCCCCCCCCC(=O)N[C@@H](CCC(=O)NCCCC[C@H](NC(=O)[C@H](C)NC(=O)[C@H](C)NC(=O)[C@H](CCC(N)=O)NC(=O)CNC(=O)[C@H](CCC(=O)O)NC(=O)[C@H](CC(C)C)NC(=O)[C@H](Cc1ccc(O)cc1)NC(=O)[C@H](CO)NC(=O)[C@H](CO)NC(=O)[C@@H](NC(=O)[C@H](CC(=O)O)NC(=O)[C@H](CO)NC(=O)[C@@H](NC(=O)[C@H](Cc1ccccc1)NC(=O)[C@@H](NC(=O)CNC(=O)[C@H](CCC(=O)O)NC(=O)[C@H](C)NC(=O)[C@@H](N)Cc1cnc[nH]1)[C@@H](C)O)[C@@H](C)O)C(C)C)C(=O)N[C@@H](CCC(=O)O)C(=O)N[C@@H](Cc1ccccc1)C(=O)N[C@H](C(=O)N[C@@H](C)C(=O)N[C@@H](Cc1c[nH]c2ccccc12)C(=O)N[C@@H](CC(C)C)C(=O)N[C@H](C(=O)N[C@@H](CCCNC(=N)N)C(=O)NCC(=O)N[C@@H](CCCNC(=N)N)C(=O)NCC(=O)O)C(C)C)[C@@H](C)CC)C(=O)O [Liraglutid] | – | increased abundance of Akkermansia and Alloprevotella | gradually approached the bacterial flora of mice fed a LFD; also recorded: differed significantly from the microflora of the control (vehicle treated) group | no statistical difference in the concentration of cytokines in ilium
